The text below walks through data of article PMC12669767.

Amino acid sequences for entries named in this document (tags omitted).
UniProt Q76N89: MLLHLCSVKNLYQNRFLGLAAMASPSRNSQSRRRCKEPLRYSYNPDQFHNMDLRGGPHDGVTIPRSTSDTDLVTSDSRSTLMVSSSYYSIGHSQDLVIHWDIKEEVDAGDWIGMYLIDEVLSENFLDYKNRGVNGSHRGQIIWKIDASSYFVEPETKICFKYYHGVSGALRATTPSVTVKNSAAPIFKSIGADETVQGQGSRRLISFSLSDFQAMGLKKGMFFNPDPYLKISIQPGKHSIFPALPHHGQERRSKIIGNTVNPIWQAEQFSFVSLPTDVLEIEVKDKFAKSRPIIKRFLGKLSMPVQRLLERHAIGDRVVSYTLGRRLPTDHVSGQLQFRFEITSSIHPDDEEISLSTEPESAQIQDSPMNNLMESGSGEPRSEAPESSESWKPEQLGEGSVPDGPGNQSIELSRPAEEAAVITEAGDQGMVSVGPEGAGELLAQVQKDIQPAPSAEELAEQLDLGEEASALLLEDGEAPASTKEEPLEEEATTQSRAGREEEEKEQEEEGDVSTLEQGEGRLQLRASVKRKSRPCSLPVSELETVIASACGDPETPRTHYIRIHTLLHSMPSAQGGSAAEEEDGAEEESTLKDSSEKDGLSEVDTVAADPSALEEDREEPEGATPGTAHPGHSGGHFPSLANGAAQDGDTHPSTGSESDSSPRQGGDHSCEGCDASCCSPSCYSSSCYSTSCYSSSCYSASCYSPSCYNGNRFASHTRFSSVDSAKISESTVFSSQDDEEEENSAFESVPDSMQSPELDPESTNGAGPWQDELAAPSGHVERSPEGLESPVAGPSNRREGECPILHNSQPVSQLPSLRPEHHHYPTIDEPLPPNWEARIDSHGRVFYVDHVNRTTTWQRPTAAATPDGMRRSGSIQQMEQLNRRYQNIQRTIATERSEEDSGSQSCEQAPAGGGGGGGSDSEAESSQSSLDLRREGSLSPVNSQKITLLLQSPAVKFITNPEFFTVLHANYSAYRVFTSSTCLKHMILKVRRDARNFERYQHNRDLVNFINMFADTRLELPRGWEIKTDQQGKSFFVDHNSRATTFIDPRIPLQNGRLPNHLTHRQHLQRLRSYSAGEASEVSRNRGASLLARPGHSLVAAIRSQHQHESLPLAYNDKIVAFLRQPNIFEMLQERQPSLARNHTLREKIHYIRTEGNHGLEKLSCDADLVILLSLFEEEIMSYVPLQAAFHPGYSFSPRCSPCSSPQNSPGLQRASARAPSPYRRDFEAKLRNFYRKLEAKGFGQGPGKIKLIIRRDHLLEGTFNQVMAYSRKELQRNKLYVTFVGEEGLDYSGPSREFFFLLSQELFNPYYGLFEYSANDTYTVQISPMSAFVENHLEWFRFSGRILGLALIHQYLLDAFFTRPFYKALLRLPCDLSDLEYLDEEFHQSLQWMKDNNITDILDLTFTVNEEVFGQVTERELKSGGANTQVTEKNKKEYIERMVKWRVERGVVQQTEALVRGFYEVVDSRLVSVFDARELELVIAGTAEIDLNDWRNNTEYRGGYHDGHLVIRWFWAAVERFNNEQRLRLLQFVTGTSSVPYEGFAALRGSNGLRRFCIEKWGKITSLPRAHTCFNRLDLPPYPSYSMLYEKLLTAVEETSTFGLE
UniProt P46934: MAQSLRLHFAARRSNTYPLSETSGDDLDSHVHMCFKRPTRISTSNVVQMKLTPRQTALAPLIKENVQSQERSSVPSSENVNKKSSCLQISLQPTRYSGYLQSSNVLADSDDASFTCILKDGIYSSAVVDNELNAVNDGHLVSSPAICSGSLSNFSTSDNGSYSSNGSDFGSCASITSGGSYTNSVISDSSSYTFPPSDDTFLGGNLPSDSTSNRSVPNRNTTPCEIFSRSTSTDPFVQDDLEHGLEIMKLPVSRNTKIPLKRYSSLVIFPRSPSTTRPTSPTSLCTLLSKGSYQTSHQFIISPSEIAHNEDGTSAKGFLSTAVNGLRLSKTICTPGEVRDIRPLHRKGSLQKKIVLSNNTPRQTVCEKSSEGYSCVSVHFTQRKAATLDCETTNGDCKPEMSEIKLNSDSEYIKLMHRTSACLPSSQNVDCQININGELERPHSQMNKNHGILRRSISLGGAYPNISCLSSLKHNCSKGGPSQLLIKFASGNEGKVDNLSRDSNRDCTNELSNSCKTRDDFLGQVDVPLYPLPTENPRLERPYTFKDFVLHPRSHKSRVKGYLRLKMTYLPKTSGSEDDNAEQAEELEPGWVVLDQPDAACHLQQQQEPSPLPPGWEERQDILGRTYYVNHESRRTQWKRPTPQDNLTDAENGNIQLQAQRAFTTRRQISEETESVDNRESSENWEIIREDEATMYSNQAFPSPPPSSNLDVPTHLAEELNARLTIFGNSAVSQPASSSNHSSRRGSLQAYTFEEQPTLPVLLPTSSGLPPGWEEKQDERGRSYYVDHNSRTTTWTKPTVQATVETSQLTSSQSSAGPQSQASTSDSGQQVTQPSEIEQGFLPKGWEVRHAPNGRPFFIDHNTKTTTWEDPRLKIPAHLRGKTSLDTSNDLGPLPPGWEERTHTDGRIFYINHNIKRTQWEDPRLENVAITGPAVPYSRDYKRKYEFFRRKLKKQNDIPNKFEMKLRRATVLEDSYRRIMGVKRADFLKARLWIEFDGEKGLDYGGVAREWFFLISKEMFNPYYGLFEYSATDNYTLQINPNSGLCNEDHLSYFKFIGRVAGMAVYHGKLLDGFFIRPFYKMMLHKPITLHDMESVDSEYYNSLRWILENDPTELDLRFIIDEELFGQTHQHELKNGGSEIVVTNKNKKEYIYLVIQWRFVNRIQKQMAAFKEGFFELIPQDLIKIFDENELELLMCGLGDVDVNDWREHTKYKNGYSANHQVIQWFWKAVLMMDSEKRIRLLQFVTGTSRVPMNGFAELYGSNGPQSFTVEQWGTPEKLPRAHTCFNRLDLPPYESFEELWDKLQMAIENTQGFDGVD
UniProt Q9P2P5: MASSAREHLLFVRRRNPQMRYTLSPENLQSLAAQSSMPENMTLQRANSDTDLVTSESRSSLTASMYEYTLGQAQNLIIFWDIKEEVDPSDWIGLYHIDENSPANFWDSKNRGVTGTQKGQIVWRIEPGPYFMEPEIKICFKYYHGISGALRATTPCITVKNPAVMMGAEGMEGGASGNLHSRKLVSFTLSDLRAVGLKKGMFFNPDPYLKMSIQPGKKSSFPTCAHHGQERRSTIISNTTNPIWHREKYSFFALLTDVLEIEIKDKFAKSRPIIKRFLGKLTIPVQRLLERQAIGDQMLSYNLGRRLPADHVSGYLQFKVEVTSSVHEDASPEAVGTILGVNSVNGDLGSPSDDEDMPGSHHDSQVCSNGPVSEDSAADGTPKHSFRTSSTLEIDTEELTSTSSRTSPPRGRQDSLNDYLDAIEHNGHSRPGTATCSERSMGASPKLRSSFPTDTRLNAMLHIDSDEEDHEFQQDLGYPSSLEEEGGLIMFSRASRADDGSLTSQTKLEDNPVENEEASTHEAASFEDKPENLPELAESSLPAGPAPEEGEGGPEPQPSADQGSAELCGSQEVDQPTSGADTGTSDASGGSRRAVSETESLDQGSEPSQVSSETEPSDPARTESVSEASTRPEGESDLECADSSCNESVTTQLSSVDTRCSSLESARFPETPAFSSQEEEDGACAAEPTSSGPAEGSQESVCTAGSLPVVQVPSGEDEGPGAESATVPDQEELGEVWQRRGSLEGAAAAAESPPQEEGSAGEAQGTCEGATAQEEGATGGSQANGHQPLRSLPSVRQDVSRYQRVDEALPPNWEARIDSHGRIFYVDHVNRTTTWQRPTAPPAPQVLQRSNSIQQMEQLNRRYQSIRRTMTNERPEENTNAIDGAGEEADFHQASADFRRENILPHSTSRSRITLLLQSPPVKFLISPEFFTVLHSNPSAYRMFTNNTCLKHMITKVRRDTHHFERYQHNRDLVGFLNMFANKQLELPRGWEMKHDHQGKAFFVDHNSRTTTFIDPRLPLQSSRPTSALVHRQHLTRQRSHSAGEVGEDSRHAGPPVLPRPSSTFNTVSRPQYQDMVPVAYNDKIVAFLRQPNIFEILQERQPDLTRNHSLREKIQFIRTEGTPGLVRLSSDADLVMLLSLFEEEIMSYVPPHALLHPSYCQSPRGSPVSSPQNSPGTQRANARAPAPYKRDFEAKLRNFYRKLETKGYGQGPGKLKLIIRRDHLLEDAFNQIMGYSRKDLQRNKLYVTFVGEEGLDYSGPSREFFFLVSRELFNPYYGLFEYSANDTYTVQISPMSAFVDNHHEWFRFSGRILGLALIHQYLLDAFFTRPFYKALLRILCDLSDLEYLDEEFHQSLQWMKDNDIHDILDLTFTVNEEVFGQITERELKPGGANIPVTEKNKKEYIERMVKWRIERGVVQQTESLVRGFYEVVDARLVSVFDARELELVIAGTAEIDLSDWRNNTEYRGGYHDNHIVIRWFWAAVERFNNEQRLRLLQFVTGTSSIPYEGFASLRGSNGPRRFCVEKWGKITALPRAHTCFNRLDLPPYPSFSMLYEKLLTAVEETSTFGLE

The target of assay [1] is T1, ALFA-TXNIP^PPCY331AACA (first PPxY motif mutated) (human) (UniProt Q9H3M7).
T1 sequence: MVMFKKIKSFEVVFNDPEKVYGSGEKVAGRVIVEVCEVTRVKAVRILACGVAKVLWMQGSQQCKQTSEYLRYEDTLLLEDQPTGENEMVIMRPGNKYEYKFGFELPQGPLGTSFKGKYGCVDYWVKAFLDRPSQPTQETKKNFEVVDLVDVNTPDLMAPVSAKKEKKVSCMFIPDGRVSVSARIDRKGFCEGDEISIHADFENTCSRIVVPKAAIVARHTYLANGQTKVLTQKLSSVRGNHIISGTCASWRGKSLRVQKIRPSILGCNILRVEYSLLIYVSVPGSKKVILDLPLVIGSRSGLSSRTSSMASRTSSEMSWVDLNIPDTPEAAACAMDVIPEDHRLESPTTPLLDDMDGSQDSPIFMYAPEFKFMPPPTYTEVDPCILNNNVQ
Put plainly: pull-down; bead-immobilized prey assay (BIPA): ALFA-TXNIP or PPxY mutants captured from HEK293T lysate on ALFA Selector ST beads and washed, then incubated 30 min on ice with lysate of HEK293T over-expressing YFP-tagged HECT-type ubiquitin ligases; 100 mM HEPES pH 7.5, 100 mM NaCl wash; YFP on the beads read by fluorescence microscopy and quantified; only the target purified.

Assay [2] has as its target ALFA-tagged TXNIP (thioredoxin interacting protein), expressed in HEK293T (human) (UniProt Q9H3M7). The description is as above.

Results are given in words; binding and its absence hold for the method and conditions named. In cells and extracts the contact can be indirect. Some binding calls cover weakened binding; strength is not graded here.

As to “YFP-HECW1 (from UniProt Q76N89 1-1606) (enzyme)”, the binding entry in assay [1] and in assay [2] was “binds” each time.
As to “YFP-NEDD4 (from UniProt P46934 1-1319) (enzyme)”, the binding result in assay [1] and in assay [2] was “binds” in each case.
In the case of “YFP-HECW2 (from UniProt Q9P2P5 1-1572) (enzyme)”, the binding result in assay [1] and in assay [2] was “binds” in each case.
